In patent US9650379B2 (CHONG KUN DANG PHARMACEUTICAL CORP., priority 2013, dated 2017):
The match of structure and compound is tentative.

The chains behind the UniProt entries cited, without tags or fusion partners.
UniProt Q9UBN7, whole entry: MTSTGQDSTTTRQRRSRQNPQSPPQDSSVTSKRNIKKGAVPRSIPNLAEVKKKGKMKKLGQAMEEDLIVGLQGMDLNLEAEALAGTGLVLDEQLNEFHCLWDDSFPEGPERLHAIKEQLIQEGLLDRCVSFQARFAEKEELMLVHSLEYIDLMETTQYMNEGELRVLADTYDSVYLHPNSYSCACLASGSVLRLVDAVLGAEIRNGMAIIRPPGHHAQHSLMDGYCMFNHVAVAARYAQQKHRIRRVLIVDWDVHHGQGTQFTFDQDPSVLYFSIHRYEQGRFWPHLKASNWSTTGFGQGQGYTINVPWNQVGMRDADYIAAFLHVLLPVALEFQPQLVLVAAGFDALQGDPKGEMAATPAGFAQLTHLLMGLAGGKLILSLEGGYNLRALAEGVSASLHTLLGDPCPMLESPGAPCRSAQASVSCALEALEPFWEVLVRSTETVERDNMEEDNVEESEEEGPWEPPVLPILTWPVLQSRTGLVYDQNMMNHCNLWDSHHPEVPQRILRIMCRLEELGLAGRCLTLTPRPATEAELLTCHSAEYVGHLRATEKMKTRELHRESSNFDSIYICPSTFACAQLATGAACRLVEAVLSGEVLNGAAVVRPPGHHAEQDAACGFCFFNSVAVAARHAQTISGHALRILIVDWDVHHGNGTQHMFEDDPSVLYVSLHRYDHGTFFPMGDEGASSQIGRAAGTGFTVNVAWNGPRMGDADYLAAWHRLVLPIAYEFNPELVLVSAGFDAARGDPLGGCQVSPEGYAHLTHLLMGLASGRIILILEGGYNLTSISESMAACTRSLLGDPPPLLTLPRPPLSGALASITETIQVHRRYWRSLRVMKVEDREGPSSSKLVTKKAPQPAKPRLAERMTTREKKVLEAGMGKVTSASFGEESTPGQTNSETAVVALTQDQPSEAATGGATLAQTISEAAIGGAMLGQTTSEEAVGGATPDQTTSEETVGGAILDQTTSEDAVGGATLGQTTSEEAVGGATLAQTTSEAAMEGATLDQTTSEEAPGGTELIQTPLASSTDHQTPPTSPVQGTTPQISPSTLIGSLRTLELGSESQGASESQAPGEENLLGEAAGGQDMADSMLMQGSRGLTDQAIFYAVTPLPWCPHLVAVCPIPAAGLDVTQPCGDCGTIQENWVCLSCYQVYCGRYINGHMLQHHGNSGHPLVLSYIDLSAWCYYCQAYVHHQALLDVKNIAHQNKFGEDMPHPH
UniProt Q13547, whole entry: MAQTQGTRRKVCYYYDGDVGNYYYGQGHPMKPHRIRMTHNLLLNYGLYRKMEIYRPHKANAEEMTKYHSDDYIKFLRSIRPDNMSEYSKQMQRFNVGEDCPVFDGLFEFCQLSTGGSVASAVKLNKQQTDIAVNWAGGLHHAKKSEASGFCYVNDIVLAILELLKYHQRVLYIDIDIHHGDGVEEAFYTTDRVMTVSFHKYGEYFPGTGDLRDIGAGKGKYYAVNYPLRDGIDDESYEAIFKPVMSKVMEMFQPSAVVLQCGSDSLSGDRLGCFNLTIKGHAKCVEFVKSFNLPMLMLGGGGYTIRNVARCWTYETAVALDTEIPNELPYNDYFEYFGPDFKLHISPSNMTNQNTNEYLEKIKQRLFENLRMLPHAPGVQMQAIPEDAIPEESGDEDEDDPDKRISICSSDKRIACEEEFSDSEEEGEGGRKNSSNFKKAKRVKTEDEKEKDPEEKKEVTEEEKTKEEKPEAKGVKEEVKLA

What was measured:
HDAC6 human recombinant = HDAC6 human recombinant (Homo sapiens, UniProt Q9UBN7); assay: Inhibition of HDAC6 activity (fluorimetric assay); conditions: read-out: HDAC6; test concentrations 0.1, 1, 10, 100 and 1000 nM; 37° C., 60 minutes
Procedure: Assays were performed using a HDAC1 fluorimetric drug discovery assay kit (Enzolifesciences: BML-AK511) and a HDAC6 human recombinant (Calbiochem: 382180). The assay mixture of the kit was treated with a test compound at concentrations of 100, 1000 and 10000 nM for HDAC1 assay and concentrations of 0.1, 1, 10, 100 and 1000 nM for HDAC6 assay. The treated assay mixture was allowed to react at 37° C. for 60 minutes, and then was treated with a developer and allowed to stand at 37° C. for 30 minutes, followed by quantification of the fluorescence.

HDAC1 = HDAC1 (Homo sapiens, UniProt Q13547); assay: Inhibition of HDAC1 activity (HDAC1 fluorimetric drug discovery assay kit); conditions: read-out: HDAC1; test concentrations 100, 1000 and 10000 nM; 37° C., 60 minutes

- IC50 (HDAC6 human recombinant): 0.499 µM
- IC50 (HDAC1): 13.6 µM
SMILES: CC(C)(C)OC(=O)N1CC=C(c2cncc3ccn(Cc4ccc(C(=O)NO)cc4)c23)CC1
